Source: US20040161821A1
Results are given in words; binding and its absence hold for the method and conditions named. Binding seen in cells or lysates may run through a third protein. Some binding calls cover weakened binding; strength is not graded here. Tags and fused reporters may be left off the sequences shown.

Sequences of proteins named here, by UniProt entry; tags and fusion partners are left off. A change or cut given only in a name is not applied to a line headed by its entry.
UniProt P08581: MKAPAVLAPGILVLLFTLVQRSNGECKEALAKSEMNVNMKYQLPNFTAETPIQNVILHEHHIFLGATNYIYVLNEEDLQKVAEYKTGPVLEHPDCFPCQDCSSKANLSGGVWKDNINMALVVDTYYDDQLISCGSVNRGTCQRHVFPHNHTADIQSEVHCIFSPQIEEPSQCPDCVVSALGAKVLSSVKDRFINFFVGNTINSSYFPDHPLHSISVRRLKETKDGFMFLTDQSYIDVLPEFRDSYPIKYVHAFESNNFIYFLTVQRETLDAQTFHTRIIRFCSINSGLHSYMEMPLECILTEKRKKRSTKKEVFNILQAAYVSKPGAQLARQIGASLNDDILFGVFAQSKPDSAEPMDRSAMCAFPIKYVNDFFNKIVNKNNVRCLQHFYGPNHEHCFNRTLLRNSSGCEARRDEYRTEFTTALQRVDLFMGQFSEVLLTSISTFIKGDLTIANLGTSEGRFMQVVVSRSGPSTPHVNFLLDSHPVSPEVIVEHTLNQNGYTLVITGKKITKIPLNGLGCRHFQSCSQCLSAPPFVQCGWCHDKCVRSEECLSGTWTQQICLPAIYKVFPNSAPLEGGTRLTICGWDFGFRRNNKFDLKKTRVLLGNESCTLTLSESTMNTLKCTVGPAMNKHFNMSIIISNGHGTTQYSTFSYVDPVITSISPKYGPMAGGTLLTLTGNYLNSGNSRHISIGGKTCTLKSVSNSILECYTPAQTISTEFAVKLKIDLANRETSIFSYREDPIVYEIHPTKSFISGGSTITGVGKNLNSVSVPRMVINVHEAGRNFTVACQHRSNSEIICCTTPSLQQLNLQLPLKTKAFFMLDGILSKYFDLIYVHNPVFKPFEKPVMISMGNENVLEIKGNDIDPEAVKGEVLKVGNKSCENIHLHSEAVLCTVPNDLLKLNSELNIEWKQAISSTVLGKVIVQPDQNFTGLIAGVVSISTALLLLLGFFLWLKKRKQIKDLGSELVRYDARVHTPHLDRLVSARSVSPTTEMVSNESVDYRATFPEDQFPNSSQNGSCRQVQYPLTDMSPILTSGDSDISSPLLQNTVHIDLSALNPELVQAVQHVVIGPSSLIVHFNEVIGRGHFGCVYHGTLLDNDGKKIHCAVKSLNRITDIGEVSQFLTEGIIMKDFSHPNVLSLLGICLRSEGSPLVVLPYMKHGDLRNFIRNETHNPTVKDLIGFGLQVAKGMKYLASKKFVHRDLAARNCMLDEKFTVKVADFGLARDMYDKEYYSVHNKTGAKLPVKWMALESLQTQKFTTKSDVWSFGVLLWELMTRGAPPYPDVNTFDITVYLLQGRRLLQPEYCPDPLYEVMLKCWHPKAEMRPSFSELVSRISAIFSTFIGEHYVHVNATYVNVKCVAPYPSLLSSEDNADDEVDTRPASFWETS
UniProt P35222: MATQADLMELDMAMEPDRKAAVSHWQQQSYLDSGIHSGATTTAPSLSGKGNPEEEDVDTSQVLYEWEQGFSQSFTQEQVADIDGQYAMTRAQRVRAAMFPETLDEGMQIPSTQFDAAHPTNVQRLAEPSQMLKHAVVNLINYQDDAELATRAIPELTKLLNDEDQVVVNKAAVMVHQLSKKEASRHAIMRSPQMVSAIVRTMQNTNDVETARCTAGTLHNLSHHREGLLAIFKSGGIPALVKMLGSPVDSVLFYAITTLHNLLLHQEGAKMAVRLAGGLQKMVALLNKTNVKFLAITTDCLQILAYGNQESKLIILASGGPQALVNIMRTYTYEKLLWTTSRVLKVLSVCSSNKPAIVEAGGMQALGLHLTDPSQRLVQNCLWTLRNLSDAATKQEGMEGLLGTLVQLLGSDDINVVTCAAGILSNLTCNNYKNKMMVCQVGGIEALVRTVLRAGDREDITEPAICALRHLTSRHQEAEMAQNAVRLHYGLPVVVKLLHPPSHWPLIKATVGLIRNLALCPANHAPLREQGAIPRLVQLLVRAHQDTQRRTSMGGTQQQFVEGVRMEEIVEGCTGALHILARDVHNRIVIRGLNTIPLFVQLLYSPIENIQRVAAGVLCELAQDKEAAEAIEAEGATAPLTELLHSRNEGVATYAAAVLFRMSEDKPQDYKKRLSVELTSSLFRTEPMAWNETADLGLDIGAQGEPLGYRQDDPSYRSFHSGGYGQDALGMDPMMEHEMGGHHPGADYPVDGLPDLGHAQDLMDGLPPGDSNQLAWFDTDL

T1: Gab 1 (human) (UniProt Q13480)
T1 sequence (chain, from pervanadate-treated cells; phosphorylated sites not stated): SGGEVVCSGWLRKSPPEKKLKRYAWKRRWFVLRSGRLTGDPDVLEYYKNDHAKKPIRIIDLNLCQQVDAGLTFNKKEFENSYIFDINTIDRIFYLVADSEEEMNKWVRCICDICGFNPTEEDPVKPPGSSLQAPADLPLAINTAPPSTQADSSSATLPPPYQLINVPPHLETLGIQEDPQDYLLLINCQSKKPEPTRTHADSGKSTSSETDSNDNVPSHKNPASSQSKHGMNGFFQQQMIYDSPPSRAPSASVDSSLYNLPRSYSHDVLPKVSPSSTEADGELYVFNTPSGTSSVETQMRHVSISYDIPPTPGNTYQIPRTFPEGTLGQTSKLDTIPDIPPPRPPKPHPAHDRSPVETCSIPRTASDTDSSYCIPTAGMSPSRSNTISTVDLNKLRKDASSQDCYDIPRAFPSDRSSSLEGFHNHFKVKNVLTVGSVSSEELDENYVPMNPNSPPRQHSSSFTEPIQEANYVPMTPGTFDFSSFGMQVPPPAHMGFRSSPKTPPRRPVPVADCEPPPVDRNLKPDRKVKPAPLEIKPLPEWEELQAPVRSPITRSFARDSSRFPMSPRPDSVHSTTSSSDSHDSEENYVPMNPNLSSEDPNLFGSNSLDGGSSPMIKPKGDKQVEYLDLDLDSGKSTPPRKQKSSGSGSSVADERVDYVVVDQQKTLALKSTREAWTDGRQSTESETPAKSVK

T2: plakoglobin (human) (UniProt P14923)
T2 sequence: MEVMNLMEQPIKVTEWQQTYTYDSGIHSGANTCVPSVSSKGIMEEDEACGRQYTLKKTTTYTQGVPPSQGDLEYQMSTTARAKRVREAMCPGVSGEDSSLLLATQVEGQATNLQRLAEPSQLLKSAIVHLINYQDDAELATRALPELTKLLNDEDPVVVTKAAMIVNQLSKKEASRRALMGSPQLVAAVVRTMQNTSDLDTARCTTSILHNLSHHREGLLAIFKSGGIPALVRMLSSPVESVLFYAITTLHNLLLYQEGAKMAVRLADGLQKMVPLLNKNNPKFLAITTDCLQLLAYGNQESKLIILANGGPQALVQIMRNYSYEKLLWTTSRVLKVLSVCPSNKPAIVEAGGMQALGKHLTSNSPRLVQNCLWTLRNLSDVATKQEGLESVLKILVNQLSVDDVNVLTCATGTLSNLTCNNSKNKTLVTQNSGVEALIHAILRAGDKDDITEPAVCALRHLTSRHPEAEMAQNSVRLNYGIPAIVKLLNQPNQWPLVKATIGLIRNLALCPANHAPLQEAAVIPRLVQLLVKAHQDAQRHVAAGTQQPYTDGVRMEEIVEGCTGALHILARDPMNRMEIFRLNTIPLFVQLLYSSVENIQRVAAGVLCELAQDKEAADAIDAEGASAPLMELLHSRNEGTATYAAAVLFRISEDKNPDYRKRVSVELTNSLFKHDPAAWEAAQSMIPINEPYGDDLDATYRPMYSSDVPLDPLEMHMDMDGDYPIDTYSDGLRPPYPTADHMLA


Key:
[1] = target: Met, the HGF/SF receptor (Homo sapiens (Human)) (UniProt P08581); test: amylose pull-down, immunoblot (told again from the preceding Examples)
[2] = target: Met, the HGF/SF receptor (Homo sapiens (Human)) (UniProt P08581); test: amylose pull-down from pervanadate-treated MDA-MB-231 lysate, immunoblot
Gab 1 (human) [3] = target: T1, Gab 1 (human); test: amylose pull-down from pervanadate-treated T-47D lysate, anti-Gab 1 immunoblot
[4] = target: Met, the HGF/SF receptor (Homo sapiens (Human)) (UniProt P08581); test: amylose pull-down from pervanadate-treated T-47D/Met lysate, anti-Met immunoblot
β-catenin (human) = β-catenin (human) (UniProt P35222); test: amylose pull-down from pervanadate-treated T-47D lysate, anti-β-catenin immunoblot
Gab 1 (human) [5] = target: T1, Gab 1 (human); test: amylose pull-down from pervanadate-treated T-47D/Met lysate, anti-Gab 1 immunoblot
plakoglobin (human) = target: T2, plakoglobin (human); test: amylose pull-down from pervanadate-treated T-47D lysate, anti-plakoglobin immunoblot

Row | binding [1] | binding [2] | binding (Gab 1 (human) [3]) | binding [4] | binding (β-catenin (human)) | binding (Gab 1 (human) [5]) | binding (plakoglobin (human)) | Binder
1 | binds | binds | binds | binds | binds | binds | binds | MBP.DEP-1(DA) (enzyme, not shown: large carriers; small tags and cut ends) RKKRKDAKNNEVSFSQIKPKKSKLIRVENFEAYFKKQQADSNCGFAEEYEDLKLVGISQPKYAAELAENRGKNRYNNVLPYDISRVKLSVQTHSTDDYINANYMPGYHSKKDFIATQGPLPNTLKDFWRMVWEKNVYAIIMLTKCVEQGRTKCEEYWPSKQAQDYGDITVAMTSEIVLPEWTIRDFTVKNIQTSESHPLRQFHFTSWPAHGVPDTTDLLINFRYLVRDYMKQSPPESPILVHCSAGVGRTGTFIAIDRLIYQIENENTVDVYGIVYDLRMHRPLMVQTEDQYVFLNQCVLDIVRSQKDSKVDLIYQNTTAMTIYENLAPVTTFGKTNGYIA
2 | – | – | – | – | binds | – | binds | MBP.DEP-1 (enzyme, not shown: large carriers) RKKRKDAKNNEVSFSQIKPKKSKLIRVENFEAYFKKQQADSNCGFAEEYEDLKLVGISQPKYAAELAENRGKNRYNNVLPYDISRVKLSVQTHSTDDYINANYMPGYHSKKDFIATQGPLPNTLKDFWRMVWEKNVYAIIMLTKCVEQGRTKCEEYWPSKQAQDYGDITVAMTSEIVLPEWTIRDFTVKNIQTSESHPLRQFHFTSWPDHGVPDTTDLLINFRYLVRDYMKQSPPESPILVHCSAGVGRTGTFIAIDRLIYQIENENTVDVYGIVYDLRMHRPLMVQTEDQYVFLNQCVLDIVRSQKDSKVDLIYQNTTAMTIYENLAPVTTFGKTNGYIA
